Reference: the supplement of paper PMC10735217
Counter-ions that a name gives are not always drawn. This is one part of the list. Repeats in this data set agree poorly, so a single value says little.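 In a drug-repurposing library screen, luminescence reads luciferase driven by eight TEAD-binding elements, stably integrated into human kidney-derived cells. Compounds scoring over five robust Z scores above the plate mean are called hits.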

Test system: HEK293A TEAD-LUC reporter
Assay: TEAD-luciferase reporter activity (YAP activation), robust Z score vs plate; higher = stronger YAP/TEAD activation
Details: 24 h

| Compound | TEAD-luciferase reporter activity (compound concentration: 200 nM) | TEAD-luciferase reporter activity (compound concentration: 2 uM) | TEAD-luciferase reporter activity (compound concentration: 10 uM) |
| --- | --- | --- | --- |
| CCc1nc(C)cc(=O)n1CCOc1ccc(CC2SC(=O)NC2=O)cc1 (stereo unspecified) | inactive: -0.767 | inactive: -1.78 | inactive: -0.611 |
| Cc1nc2n(c(=O)c1CCN1CCC(c3noc4cc(F)ccc34)CC1)CCCC2O (stereo unspecified) [paliperidone ER, Torrent Pharmaceuticals] | inactive: -1.79 | inactive: -0.613 | inactive: 0.948 |
| O=C(Nc1ccc(C(=O)N2C[C@H]3COCCN3Cc3ccccc32)c(Cl)c1)c1ccccc1-c1ccccc1 | inactive: 1.11 | inactive: -0.0361 | inactive: -0.898 |
| O=C1NC2(CCN(Cc3ccccc3)CC2)Oc2ccccc21 | inactive: -1.63 |  | inactive: -0.255 |
| COc1ccc(C(C(N)=O)N2CCCCC2)cc1 (stereo unspecified) | inactive: 0.375 | inactive: -2.35 | inactive: -0.429 |
| CC(=O)[C@H]1CC=C2[C@@H]3CC[C@H]4C[C@H](O)CC[C@]4(C)[C@H]3CC[C@@]21C | inactive: -0.114 | inactive: 0.541 | inactive: 1.85 |
| C/C(=C\C(=O)CC(C)C(=O)O)[C@H]1C[C@H](O)[C@@]2(C)C3=C(C(=O)C[C@]12C)[C@@]1(C)CCC(=O)C(C)(C)[C@@H]1C[C@@H]3O (stereo partly specified) | inactive: -2.35 | inactive: -0.459 | inactive: -1.38 |
| CN(C)C/C=C(/c1ccc(Br)cc1)c1cccnc1 [zimeldine hydrochloride] | inactive: 0.0492 | inactive: -0.888 | inactive: -0.18 |
| CC1(C)[C@@H]2C[C@H]1[C@@](C)(O)[C@@H](O)C2 [2,3-cis/exo-Pinanediol] | inactive: -0.128 | inactive: -0.131 | inactive: -1.99 |
| C[C@@H](NCCCn1ccnc1)c1ccc(Cl)cc1 | inactive: 0.962 | inactive: 0.569 | inactive: -0.917 |
| CC(C)[C@H](CO)Nc1nc(Nc2cccc(Cl)c2)c2ncn(C(C)C)c2n1 [Purvalanol A] | inactive: 0.951 | inactive: 1.23 | inactive: 0.967 |
| CC(C)[C@H](NC(=O)c1cc(-c2ccc(Nc3nc4ccc(F)cc4s3)cc2)no1)C(=O)O | inactive: -0.474 | inactive: 1.18 | inactive: 0.402 |
| C=C[C@@]1(C)CC(=O)[C@]2(O)[C@@]3(C)[C@@H](O)CCC(C)(C)[C@@H]3[C@H](OC(=O)CCN(C)C)[C@H](OC(C)=O)[C@@]2(C)O1 [colforsin daropate] | inactive: -0.187 | inactive: -2.12 | inactive: -0.778 |
| Cc1cn(CCCCN2CCN(c3cc(C(F)(F)F)nc(C(C)(C)C)n3)CC2)c(=O)nc1O | inactive: 1.61 | inactive: -0.28 | inactive: 3.53 |
